Measurements as given in PubChem BioAssay AID485353 (National Center for Advancing Translational Sciences (NCATS), 2010).
The whole screen tested about 330,000 compounds, of which about 610 (0.18%) were called active. This list was built around the results that the source calls inconclusive (neither active nor inactive); the mix of calls is not that of the screen. The call rests on the fitted dose curve. Where the call is inconclusive, the potency comes from a doubtful curve fit.

experiment: qHTS of Yeast-based Assay for SARS-CoV PLP; further: nearly all actives have a fitted effect of over 55% in size; conditions: S. cerevisiae expressing SARS-CoV PLpro; Potency: growth rescue; series mostly up to 32.9 µM
Potency means the concentration at half of the fitted maximal effect.

Structure (SMILES) | Potency
CCN(CC)S(=O)(=O)c1cccc(C(=O)Nc2cc(C)cc(C)c2)c1 | inactive
O=c1oc2ccccc2n1CCc1ccccc1 | inconclusive: 8.91 µM [activator, partial curve]
COc1ccccc1-c1ccc(SCc2ccc([N+](=O)[O-])cc2)nn1 | inactive
Nc1nonc1-n1nnc(C(=O)N/N=C/c2cc(Br)ccc2O)c1CSC1=NCCS1 | active: 4.47 µM
CNC(=S)N/N=C/c1cn(Cc2c(F)cccc2Cl)c2ccccc12 | inconclusive: 20 µM [activator, single point]
CCOC(=O)c1ccc(CNC(=O)Cn2nnc(-c3ccccc3)n2)o1 | inactive
Cc1sc2nc(SCC(=O)c3cc(C)n(CC4CCCO4)c3C)n(C(C)C)c(=O)c2c1C (stereo unspecified) | inconclusive: 4.47 µM [activator, single point]
CC(C)COc1cccc(C(=O)N(C)CC(=O)Nc2cccc3ccccc23)c1 | active: 14.1 µM
Cc1cc(Nc2ccc(C(=O)O)cc2)nc(N)n1 | inconclusive: 2.51 µM [activator, full curve, poor fit]
CC(NC(=O)c1ccc(N(C)C)cc1)C1CC2CCC1C2 (stereo unspecified) | active: 22.4 µM
S=c1[nH]nc(-c2ccc(Cl)cc2)n1Cc1ccccc1 | inconclusive: 20 µM [activator, single point]
COc1cccc(/C=N/NC(=O)c2ccc(=O)n(C)c2)c1O | inconclusive: 20 µM [activator, single point]
O=C(Cn1cc([N+](=O)[O-])ccc1=O)NCc1ccc(Cl)cc1Cl | inactive
Cc1cc(C)n2nc(SCC(=O)Nc3ccc(F)cc3[N+](=O)[O-])nc2n1 | inactive
COCCn1c(SCC(=O)Nc2cc(C)nn2-c2ccccc2)nnc1-c1ccncc1 | inconclusive: 0.355 µM [activator, full curve, poor fit]
CN(C)c1ncc(S(=O)(=O)c2ccccc2)c(N)n1 | inactive
Cc1ccc(Nc2c([N+](=O)[O-])ccc3nonc23)cc1C | inactive
CCOc1ccc(-c2nc(CSc3nnc(N)s3)cs2)cc1 | inconclusive: 2.82 µM [activator, partial curve]
CC(C)(C)C(=O)NC1CC2CCCC(C1)N2C(=O)Nc1ccccc1 (stereo unspecified) | inconclusive: 2.82 µM [activator, partial curve]
CC1(C)Cc2c(cnn2-c2cccc(F)c2)C(NC(=O)C2CCOCC2)C1 (stereo unspecified) | inactive
Cc1cc(N2CCN(C)CC2)nc2ccc(NC(=O)c3ccc4c(c3)OCO4)cc12 | inactive
COc1ccccc1NC(=O)c1coc(=O)c(Br)c1 | inactive
C=CC[n+]1c(C)csc1Nc1cccc(Br)c1 | inactive
Cn1c(=O)c(-[n+]2ccccc2)c([O-])c2ccccc21 | inconclusive: 4.47 µM [activator, single point]
CC1(C)Cc2c(sc(NC(=O)C(=O)N3CCCC3)c2C#N)CO1 | inactive
CCOC(=O)C(NC(=O)c1ccc(OC)cc1)(Nc1cc(C)on1)C(F)(F)F (stereo unspecified) | inactive

Structure (SMILES) | Potency
S=C(NCc1cccnc1)NCc1cccnc1 | inactive
C[C@@H]1CN([C@H](C)CO)C(=O)c2cc(NS(=O)(=O)c3cn(C)cn3)ccc2O[C@H]1CN(C)C(=O)Nc1ccccc1 | inconclusive: 15.8 µM [activator, single point]
COc1ccc(C(=O)NC(=S)N2CCN(c3ccc([N+](=O)[O-])cc3)CC2)cc1 | inconclusive: 20 µM [activator, single point]
CC1CCN(C(=O)c2cc3ccccc3o2)CC1 | inconclusive: 2.51 µM [activator, single point]
CN(C)NC(=S)Nc1ccc(Cl)cc1 | active: 11.2 µM
O=C(/C=C/c1cccs1)NC(=S)NNC(=O)Cc1cccs1 | inconclusive: 22.4 µM [activator, single point]
C=Cc1ccc(C(=O)N2CCCC(CCC(=O)N3CCN(c4ccccn4)CC3)C2)cc1 (stereo unspecified) | inconclusive: 3.98 µM [activator, single point]
COc1cc(C)c(S(=O)(=O)Nc2ccccc2F)cc1C | inconclusive: 10 µM [activator, single point]
COc1cc(C)c(/C=C(\C#N)C(=O)Nc2ccc(C)cc2)cc1C(C)C | inconclusive: 20 µM [activator, single point]
COc1ccc(-c2nnnn2C)cc1S(=O)(=O)Nc1ccc(C)cc1C | inactive
C/C(CC(=O)Nc1ccc(N(C)C)cc1)=N\NC(=O)c1ccc([N+](=O)[O-])cc1Cl | inactive
Cc1cccc(C)c1NC(=O)NN(C(=O)c1ccccc1)C(C)(C)C | active: 2.51 µM
O=C(/C=C/c1ccccc1Cl)c1ccccc(=O)c1O | inconclusive: 4.47 µM [activator, single point]
C[C@@H](C(=O)Nc1ccc2ccccc2c1)[C@H]1C[C@]1(C)[C@H](NC(=O)OCc1ccccc1)c1ccccc1 | inconclusive: 4.47 µM [activator, single point]
O=C(C[n+]1cc(-c2ccccc2)n2c1CCCCC2)c1ccc(Cl)cc1 | inactive
COc1ccc(NC(=S)Nc2cnc3ccccc3c2)c(OC)c1 | inactive
O=S(=O)(Nc1ccc(-c2nc3cccnc3s2)cc1)c1ccccc1F | inactive
Cc1nnc(NC(=O)C2CCCN(c3ncccn3)C2)s1 (stereo unspecified) | inactive
CCOc1ccc(N2C(=O)CC(SC(=NC)Nc3ccc4c(c3)OCO4)C2=O)cc1 (stereo unspecified) | inconclusive: 15.8 µM [activator, single point]
C/C(=N\NC(=O)Cc1csc(N2CCOCC2)n1)c1ccccc1 | inconclusive: 3.55 µM [activator, single point]
CC(C)(C)n1nnnc1C(c1cc2cc3c(cc2[nH]c1=O)OCCO3)N1CCSCC1 (stereo unspecified) | inconclusive: 20 µM [activator, single point]
Cc1cccc(C)c1NC(=S)N1CCCN(Cc2ccc(F)cc2)C1 | inactive
NC12CC3CC(C1)CC(CC(=O)O)(C3)C2 | inactive
Oc1ccc(N=Nc2ccccc2-c2nn[nH]n2)c(O)c1 | inconclusive: 3.16 µM [activator, single point]
O=c1ccc(-c2ccc(S(=O)(=O)NCC3CCN(Cc4ccccc4F)CC3)s2)n[nH]1 | inconclusive: 3.98 µM [activator, single point]
Cc1[nH]c2ccccc2c1/C=N\NC(=O)CNc1ccc2c(c1)OCO2 | inconclusive: 22.4 µM [activator, single point]

A draw from above in order of SMILES length, rising.
Structure (SMILES) | Potency
NC12CC3CC(C1)CC(CC(=O)O)(C3)C2 | inactive
COc1cc(C)c(S(=O)(=O)Nc2ccccc2F)cc1C | inconclusive: 10 µM [activator, single point]
COc1ccc(NC(=S)Nc2cnc3ccccc3c2)c(OC)c1 | inactive
CCOc1ccc(N2C(=O)CC(SC(=NC)Nc3ccc4c(c3)OCO4)C2=O)cc1 (stereo unspecified) | inconclusive: 15.8 µM [activator, single point]

Additional structures:

Structure (SMILES) | Potency
CCN(Cc1nc2ccccc2c(=O)[nH]1)C(=O)COc1ccccc1Cc1ccccc1 | inactive
CC1CCN(C(=S)NC(=O)c2ccc(C(C)(C)C)cc2)CC1 | inactive
CC1(C)CC(=O)C=C(Nc2ccc(F)c(Cl)c2)C1 | inactive
Cc1ccc(Cl)cc1NC(=S)Nn1cnnc1 | inconclusive: 11.2 µM [activator, single point]
CC(O)COc1ccc(/C(=N/O)c2ccccc2)cc1 (stereo unspecified) | inactive
Cc1cccc(NC(=S)NCc2cccs2)c1C | inconclusive: 22.4 µM [activator, single point]
Cc1ccc(S(=O)(=O)N(C)C)cc1NC(=S)NNC(=O)C1CC1 | inconclusive: 2.82 µM [activator, single point]
C=CCNCCCCOc1ccccc1 | inconclusive: 14.1 µM [activator, single point]
COc1ccc(N(C)S(=O)(=O)c2ccc3c(c2)CCN3C(=O)C2CC2)c(OC)c1 | inconclusive: 20 µM [activator, single point]
COc1ccc(-c2nnc(SCCC(=O)O)n2-c2ccccc2)cc1 | inconclusive: 22.4 µM [activator, single point]
CC(=O)c1c(C)[nH]c(C(=O)Nc2ccc(Cl)c(S(=O)(=O)N3CCOCC3)c2)c1C | inconclusive: 17.8 µM [activator, single point]
COc1ccc(OCC(=O)Nc2c(C(=O)N3CCN(C)CC3)oc3ccccc23)cc1 | inconclusive: 4.47 µM [activator, single point]
O=C(Nc1ccccc1)c1cc(Cl)nc2ccccc12 | inconclusive: 3.16 µM [activator, full curve, poor fit]
CCOC(=O)Cc1csc(NC(=S)NC(=O)c2ccc(C)cc2)n1 | inactive
O=C(NCCc1csc(-c2cccnc2)n1)c1ccc(Cl)cc1 | inactive
O=S(=O)(Nc1ccc(O)c(Sc2nc3ccccc3s2)c1)c1cccc2ccccc12 | inconclusive: 20 µM [activator, partial curve, poor fit]
COc1ccc(S(=O)(=O)NCC(=O)N(Cc2ccco2)C(C(=O)NC(C)(C)C)C(C)C)cc1 (stereo unspecified) | inactive
Brc1cc2c(cc1/C=N/Nc1nc3ccccc3s1)OCO2 | inactive
COc1ccccc1NC(=O)C1=C(C)N(c2ccccc2)C(=S)NC1c1cccc(C(F)(F)F)c1 (stereo unspecified) | inconclusive: 11.2 µM [activator, partial curve]
CCOc1ccc(C(=O)NCC(c2cccs2)N(C)C)cc1 (stereo unspecified) | inconclusive: 20 µM [activator, single point]
CCCN(Cc1nnc(-c2ccccc2Cl)o1)C(=O)c1ccc(C)c(S(=O)(=O)N2CCOCC2)c1 | inconclusive: 20 µM [activator, single point]
CCc1ccc2[nH]c3nc(N/N=C/c4ccc(O)cc4O)nnc3c2c1 | inconclusive: 7.94 µM [activator, partial curve]
CC1(C(=O)NC(=S)NNC(=O)c2ccncc2)CCCCC1 | inconclusive: 22.4 µM [activator, single point]
CCCCn1c(-c2ccncc2)nc2c1c(=O)[nH]c(=O)n2CC(C)C | inactive
